Measurements taken from patent US20220313819A1, “COMBINATION THERAPY FOR THE TREATMENT OF SOLID AND HEMATOLOGICAL CANCERS” (Arch Oncology, Inc., priority 2019, published 2022).
These are yes or no findings as the source states them, for the method shown. Some entries that bind do so weakly or less than the wild type.

Amino acid sequences for entries named in this document (tags omitted). A change or cut given only in a name is not applied to a line headed by its entry.
UniProt Q08722: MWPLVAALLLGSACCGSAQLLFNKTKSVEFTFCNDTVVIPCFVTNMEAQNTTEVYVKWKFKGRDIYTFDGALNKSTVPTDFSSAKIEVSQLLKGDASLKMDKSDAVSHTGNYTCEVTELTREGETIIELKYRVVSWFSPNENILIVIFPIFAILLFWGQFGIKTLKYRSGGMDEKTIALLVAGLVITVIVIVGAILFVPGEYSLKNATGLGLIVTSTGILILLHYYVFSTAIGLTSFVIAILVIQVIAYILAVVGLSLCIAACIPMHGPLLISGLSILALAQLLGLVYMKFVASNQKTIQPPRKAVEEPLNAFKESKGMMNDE

Tests used:
human CD47 (human) [1] = biological target: human CD47 (human) (UniProt Q08722); experiment: flow cytometry, human RBCs
human CD47 (human) [2] = biological target: human CD47 (human) (UniProt Q08722); experiment: cell ELISA, OV10 hCD47 cells
human CD47 (human) [3] = biological target: human CD47 (human) (UniProt Q08722); experiment: flow cytometry on freshly isolated human RBCs, FITC-labelled donkey anti-human antibody, MFI
human CD47 (human) [4] = biological target: human CD47 (human) (UniProt Q08722); experiment: cell-based ELISA on OV10 cells expressing human CD47 (OV10 hCD47), HRP-labelled secondary antibody, OD 450

Measured: binding

B1: VLX8hum_06 IgG2 (antibody, V domains shown)
VH: QVQLVQSGAEVKKPGASVKVSCKASGYSFTNYYIHWVRQAPGQGLEWMGYIDPLNGDTTYNQKFKGRVTMTRDTSTSTVYMELSSLRSEDTAVYYCARGGKRAMDYWGQGTLVTVSS
VL: DIQMTQSPSSLSASVGDRVTITCRASQSISNYLNWYQQKPGKAPKLLIYYTSRLYSGVPSRFSGSGSGTDFTLTISSLQPEDFATYYCQQGNTLPWTFGQGTKVEIKR
binds: all assays above

B2: VLX8hum_09 IgG2 (antibody, V domains shown)
VH: QVQLVQSGAEVKKPGSSVKVSCKASGYSFTNYYIHWVRQAPGQGLEWMGYIDPLNGDTTYAQKFQGRVTITADESTSTAYMELSSLRSEDTAVYYCARGGKRAMDYWGQGTLVTVSS
VL: DIQMTQSPSSLSASVGDRVTITCRASQSISNYLNWYQQKPGKAPKLLIYYTSRLYSGVPSRFSGSGSGTDFTLTISSLQPEDFATYYCQQGNTLPWTFGQGTKVEIKR
binds: all assays above

B3: VLX8hum_08 IgG2 (antibody, V domains shown)
VH: EVQLVQSGAEVKKPGESLKISCKGSGYSFTNYYIHWVRQMPGKGLEWMGYIDPLNGDTTYNQKFKGQVTISADKSISTAYLQWSSLKASDTAMYYCARGGKRAMDYWGQGTLVTVSS
VL: DIQMTQSPSSLSASVGDRVTITCRASQSISNYLNWYQQKPGKAPKLLIYYTSRLYSGVPSRFSGSGSGTDFTLTISSLQPEDFATYYCQQGNTLPWTFGQGTKVEIKR
binds: all assays above

B4: VLX8hum_07 IgG2 (antibody, V domains shown)
VH: QVQLVQSGAEVKKPGSSVKVSCKASGYSFTNYYIHWVRQAPGQGLEWMGYIDPLNGDTTYNQKFKGRVTITADESTSTAYMELSSLRSEDTAVYYCARGGKRAMDYWGQGTLVTVSS
VL: DIQMTQSPSSLSASVGDRVTITCRASQSISNYLNWYQQKPGKAPKLLIYYTSRLYSGVPSRFSGSGSGTDFTLTISSLQPEDFATYYCQQGNTLPWTFGQGTKVEIKR
binds: all assays above
